In publication PMC10725606 one finds binding data, which are given here for three substances.

Protein sequences, listed by entry. Tags and fused reporters are not part of them. Lines headed by an entry give the natural chain unless they say otherwise; changes in a name come on top.
UniProt Q96RT1: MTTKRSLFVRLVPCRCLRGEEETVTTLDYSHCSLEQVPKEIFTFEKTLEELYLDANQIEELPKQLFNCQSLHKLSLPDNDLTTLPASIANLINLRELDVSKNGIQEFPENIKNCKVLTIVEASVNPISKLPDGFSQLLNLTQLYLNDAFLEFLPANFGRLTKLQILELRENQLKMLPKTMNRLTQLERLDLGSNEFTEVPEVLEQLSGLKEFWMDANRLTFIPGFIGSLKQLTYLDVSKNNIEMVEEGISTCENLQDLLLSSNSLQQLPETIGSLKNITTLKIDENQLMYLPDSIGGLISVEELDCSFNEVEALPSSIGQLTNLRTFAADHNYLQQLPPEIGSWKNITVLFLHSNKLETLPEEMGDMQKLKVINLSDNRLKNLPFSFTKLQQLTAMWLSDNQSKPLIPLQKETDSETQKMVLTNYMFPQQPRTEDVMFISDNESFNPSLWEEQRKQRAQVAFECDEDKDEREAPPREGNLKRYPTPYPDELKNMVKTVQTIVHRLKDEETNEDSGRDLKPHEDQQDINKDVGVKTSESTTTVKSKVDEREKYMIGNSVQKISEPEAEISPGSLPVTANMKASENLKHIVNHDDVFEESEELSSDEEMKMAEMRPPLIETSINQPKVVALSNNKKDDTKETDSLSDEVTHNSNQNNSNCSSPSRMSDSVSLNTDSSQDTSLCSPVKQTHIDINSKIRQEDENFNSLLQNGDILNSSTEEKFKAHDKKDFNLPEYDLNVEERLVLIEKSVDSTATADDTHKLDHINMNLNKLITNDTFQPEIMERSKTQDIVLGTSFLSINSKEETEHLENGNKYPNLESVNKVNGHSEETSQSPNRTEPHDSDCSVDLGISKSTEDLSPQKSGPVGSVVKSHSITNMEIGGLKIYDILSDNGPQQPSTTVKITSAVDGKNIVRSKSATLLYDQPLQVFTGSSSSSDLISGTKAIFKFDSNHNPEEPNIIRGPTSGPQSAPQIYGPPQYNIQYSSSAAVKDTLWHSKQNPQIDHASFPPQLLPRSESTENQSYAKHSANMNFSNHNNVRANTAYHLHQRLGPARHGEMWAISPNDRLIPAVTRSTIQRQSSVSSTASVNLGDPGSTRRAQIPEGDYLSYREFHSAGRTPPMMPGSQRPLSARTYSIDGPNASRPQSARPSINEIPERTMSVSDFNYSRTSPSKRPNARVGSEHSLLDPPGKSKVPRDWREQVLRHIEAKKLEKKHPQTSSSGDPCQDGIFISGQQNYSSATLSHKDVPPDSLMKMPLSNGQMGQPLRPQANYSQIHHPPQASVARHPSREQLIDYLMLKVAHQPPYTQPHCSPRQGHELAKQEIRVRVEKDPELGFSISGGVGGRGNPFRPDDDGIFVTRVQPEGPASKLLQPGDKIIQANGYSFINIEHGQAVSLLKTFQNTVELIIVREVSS

These are yes or no findings as the source states them, for the method shown. In cells and extracts the contact can be indirect. Some binding calls cover weakened binding; strength is not graded here.

One test concerns the target Myc-tagged TFEB (UniProt P19484). Briefly: co-IP; 293T cells co-transfected with Erbin and TFEB plasmids (full length or truncated), 48 h; co-IP and immunoblot with the indicated antibodies; lysis in 50 mM Tris-HCl, 150 mM NaCl, 1% Triton X-100, 1 mM EDTA, 10% glycerol, pH 7.4; washes with 300 mM NaCl.
Test [1] deals with T1, N-terminal of TFEB (aa 1-247) (UniProt P19484).
T1 sequence: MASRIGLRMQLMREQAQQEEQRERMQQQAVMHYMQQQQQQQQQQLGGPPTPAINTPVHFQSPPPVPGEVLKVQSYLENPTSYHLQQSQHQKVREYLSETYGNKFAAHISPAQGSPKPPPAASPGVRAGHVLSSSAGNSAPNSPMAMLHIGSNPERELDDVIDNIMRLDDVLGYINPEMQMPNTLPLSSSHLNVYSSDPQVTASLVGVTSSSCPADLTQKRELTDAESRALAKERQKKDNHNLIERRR
Described as above.

The target in test [2] is TFEB (of the experiment of Fig. 6C) (UniProt P19484). Nature of the test: co-IP; 293T cells transfected with Flag-TFEB and/or HA-Erbin; TFEB with 14-3-3 or PPP3CB of the lysate, with or without co-expressed HA-Erbin; immunoblot with the indicated antibodies. On the technique in general: In western blotting, separated proteins are transferred to a membrane and probed.

As for “C-terminal of Erbin (aa 391-964) (from UniProt Q96RT1 391-964) (domain or fragment)”, the binding entry with Myc-tagged TFEB is listed as “binds”. Regarding “HA-tagged Erbin (from UniProt Q96RT1 1-1412)”, the binding entry (with Myc-tagged TFEB; in test [1]) was “binds” each time.

For the substance “PPP3CB (from UniProt P16298 1-524) (enzyme)”, the binding result in test [2] was “binds”.
